The values below come from the supplement of paper PMC5949888.

± gives the standard deviation of the averaged measurements. Most values lie at the floor of the assay. Slopes are relative: functional sequences can read slightly below zero.

The data set has as its system Saccharomyces cerevisiae PS128 hsf1 delta, HSF1(1-493) fusion. The data set is described as follows: growth estimate (transactivation domain function in HSF1 fusion, heat-shock survival) (a.u. (slope of normalised read count over time)); higher = stronger growth at 37°C, i.e. more transactivation activity. The conditions noted are these: library: random library.
For VVGCSLVLTRQFVYQKRLSA, the growth estimate was less than -0.25.
As for LAGHCTACVGRS, the growth estimate was less than -0.25.
Take VWVSESVD: the growth estimate was less than -0.25.
In the case of TVGGFVSSDAYSAYQSSYWG it was less than -0.25; in that of YGVVLTSGYDQFNFRRASLS, less than -0.25.
VHNSIITKG: the growth estimate is less than -0.25.
Consider AGDPMLR, for which the growth estimate is less than -0.25.
In the case of ALIRARVGSLTSLLGSVHGS it was less than -0.25; in that of STGDLAPQTQLAVVGPTLVS, less than -0.25; in that of SSQEVVIRGKGLRW, -0.213.
Consider PRVCLARLG, for which the growth estimate was -0.245.
As to SRCKGPENFTGWQLLFLQRV, the growth estimate was less than -0.25.
The result for HGAWSLHTLSGLPR reads less than -0.25.
HLSTGRCLSPCPPQNGQWLS: the growth estimate was less than -0.25.
The result for SEC reads less than -0.25; that for PRSIEDGAASAPPPRTESQW, less than -0.25; that for ADRGLLSICLSQKR, less than -0.25.
SRKRHSSVCTGGHGLLS: the growth estimate was less than -0.25.
As for RKCDHKSGHRMSIAWNRRRL, the growth estimate was less than -0.25.
The result for PGSYRFYFVGDSDLKLTRGE reads less than -0.25; that for QYFTGGRWQC, less than -0.25.
Turning to LSSS, the growth estimate is -0.244 ± 0.011.
The result for MPFICSGYVI reads less than -0.25; that for HTQRPPHRV, less than -0.25.
In the case of SRMPFQYK it was less than -0.25.
As to RSYVSELILPAAKRQLQGTT, the growth estimate was less than -0.25.
In the case of LFVAQSGMSRLRWSLVGPKR it was less than -0.25; in that of QLENHDLGSSALGFLGPART, less than -0.25; in that of RHRLCRETPTAVRTALLGKV, less than -0.25.
In the case of QEPQRK it was less than -0.25; in that of TDSEMGSVEDLLVFFGEGGL, 3.11.
LGW: the growth estimate is less than -0.25.
In the case of DCFLYQGQGPEHTVDIAPRA it was less than -0.25.
The result for LIKRREVLKWCSPSRLACAQ reads less than -0.25; that for PSFNGRSWLDFTEKGSHN, less than -0.25.
LGGRPVHLVPKKGKRSVAVV: the growth estimate is less than -0.25.
Take HCDVKPETRGGRDMITVRLA: the growth estimate is less than -0.25.
The result for TTDGVAGHGVFTAHSYLGTR reads less than -0.25; that for RRKR, less than -0.25.
The result for SIYEEGSRHDTRSMFELPIR reads less than -0.25; that for IVHADIIAGKACTTLYLYTK, less than -0.25.
Regarding RLRSSNMSRYSVVLVHFRIP, the growth estimate is less than -0.25.
The result for LPTFRPRLTRRDGSGPKIKT reads less than -0.25.
Turning to GRAATGLITKVNKVSVLS, the growth estimate is less than -0.25.
In the case of LRSQCVVKSWERNQGPQHGA it was less than -0.25; in that of VSGISGFERVWIVVR, less than -0.25; in that of VGYRVSCRVRIRQCGAVRRR, less than -0.25.
As for GGKVKRLKVNVVRHRRCLRR, the growth estimate is less than -0.25.
With FVFVSLSFHQRTSLTMG, the growth estimate is less than -0.25.
The result for GHV reads less than -0.25; that for DHAAVYWELR, less than -0.25; that for HGCLGGLLLWEDSPSRRSIY, less than -0.25.
Take KRPGRCGYIRLPLSFGHTEG: the growth estimate is less than -0.25.
The result for SEMYVPKKGTARKYRIGCQG reads less than -0.25.
VQKDLEISGYISMGIKCGSL: the growth estimate was less than -0.25.
On to GMGRLALAQSWNNRVRSVND, for which the growth estimate is less than -0.25.
In the case of RGPLPFSLSGNVRFDCPVHT it was less than -0.25.
Consider VSCLKLTRSYPTWI, for which the growth estimate was less than -0.25.
In the case of VNLCKEYQANIGPTMGNEVS it was less than -0.25.
As to GTGVPAESVVPRNSAG, the growth estimate is less than -0.25.
On to PVRGIGGWLVLR, for which the growth estimate was less than -0.25.
In the case of FSGVQETLKVETKYAW it was less than -0.25.
In the case of SRPFQVGPPKQVERA it was less than -0.25; in that of KTPIDANRLNCALSSLCTT, less than -0.25; in that of AVCTKAGGLWGARIFNIMTG, less than -0.25.
The result for CSPVTARTPSVWERVHRGTW reads less than -0.25; that for PLHAARLCKRAGEGHARPRV, -0.246.
In the case of YRHPSPPCRYQGKCPVCP, the growth estimate is -0.214.
Consider SLSNSTLVANHCCLEHKKRT, for which the growth estimate was less than -0.25.
Regarding NSRPSRYNFEMGSGLSVSAH, the growth estimate is less than -0.25.
In the case of VLGFQCYVTFVKC it was less than -0.25; in that of QDDTSARIPLPIGPPGSVVL, less than -0.25; in that of LRAGRVASKCCQEHSALSNR, less than -0.25.
The result for DLRFRHNRKSSQPRPV reads less than -0.25.
The result for DVLVIKDNM reads less than -0.25.
As to GLFQVVAHGPRGVNRSLRPP, the growth estimate was less than -0.25.
In the case of TRPYLVT it was less than -0.25; in that of KVRPLIRAFKRDPESSIPRV, -0.237.
The result for FKVNAKCREVVTDYA reads less than -0.25.
RQSGPLGKRARTFSFMPVPL: the growth estimate was 0.0057.
In the case of DPLSDEGRETTISVFQTRDR it was less than -0.25.
In the case of RPQFGQGRSVQLSPSIVSDR it was less than -0.25; in that of LDMGCTPHFGGGVTTPGTFR, less than -0.25.
LGQVHSGWASDRIRSHQWRL: the growth estimate was less than -0.25.
Consider VGKL, for which the growth estimate is less than -0.25.
Turning to KFS, the growth estimate was less than -0.25.
For GQG, the growth estimate was less than -0.25.
As for NVGL, the growth estimate is -0.191.
Turning to EDPPI, the growth estimate is less than -0.25.
As for IKPGCQSLQIGRNSFERDWP, the growth estimate is less than -0.25.
STNNETHVFWFRSSRPSVCR: the growth estimate is less than -0.25.
In the case of SGLTVIPTGMVARAGSFWVG it was less than -0.25; in that of IYRSRSSDSICVSQRLFRRY, less than -0.25; in that of LVCTSTLDHGGQFEPHVVLS, less than -0.25.
The result for AMMTEPWTAGGGPLPAAR reads less than -0.25.
In the case of SALACDIKNFN it was less than -0.25; in that of GCCDRYAFTHASGSTRKVAR, less than -0.25; in that of GRVGSCVMALRPATTPDKSQ, less than -0.25.
AARGAPWIAAQIGRVALICA: the growth estimate was less than -0.25.
Regarding VRLARLSARVQSSPALNLAS, the growth estimate was less than -0.25.
Turning to NRWSWNVRGPPCINDNVCQA, the growth estimate was less than -0.25.
In the case of AKLSGIEPTQG it was less than -0.25; in that of LFQWDYDRSLDGHV, less than -0.25.
In the case of RTVVYPDNRRLVLCARHVLS it was -0.243.
LLKLRNLETRPCMGPDRAME: the growth estimate was less than -0.25.
The result for TPKGQNRLGLSLPGVKSHSA reads less than -0.25; that for TLSRVCLTGLE, less than -0.25.
As to VLRMAKRMLLDSNAQFRNRA, the growth estimate was less than -0.25.
In the case of VHASAPWGSTEEDRTTANGL it was less than -0.25; in that of WAEIEWRINHRSCDVLFACV, -0.243; in that of GRTYLAAQAFRSPPQGLRV, less than -0.25.
